Source: US20050176933A1

The chains behind the UniProt entries cited, without tags or fusion partners. Where a name states a change or a piece, a line headed by the entry shows the natural chain unless it says otherwise.
UniProt P35613: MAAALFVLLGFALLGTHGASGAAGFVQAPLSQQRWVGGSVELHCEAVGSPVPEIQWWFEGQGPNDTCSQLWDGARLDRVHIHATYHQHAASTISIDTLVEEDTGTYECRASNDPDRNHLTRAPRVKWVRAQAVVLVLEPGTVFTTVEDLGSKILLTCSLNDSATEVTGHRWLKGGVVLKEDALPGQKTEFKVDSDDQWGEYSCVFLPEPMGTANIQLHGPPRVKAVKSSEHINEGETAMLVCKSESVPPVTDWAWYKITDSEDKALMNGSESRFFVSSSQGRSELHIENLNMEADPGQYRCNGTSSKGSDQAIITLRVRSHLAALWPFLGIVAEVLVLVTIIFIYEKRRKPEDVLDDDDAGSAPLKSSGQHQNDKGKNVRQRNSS

Target: hepatoma-associated antigen HAb18G on hepatocarcinoma cell line HHCC (human) (UniProt P35613)
Experiment: immuno-fluorescence staining of HHCC cells; McAb HAb18 as positive control

B1: murine anti-human hepatoma McAb HAb18 (antibody, mouse IgG1, V domains shown)
VH: EVKLEESGGGLVQPGGSMKLSCVASGFTFSDAWMDWVRQSPEKGLEWVAEIRSKANNHAPYYTESVKGRFTISRDDSKSIIYLQMNNLRAEDTGIYYCTRDSTATHWGQGTLVTVSS
VL: SIVMTQTPTFLVVSAGDRVTITCKASQSVINDVAWYQQKPGQSPKLLIFYASNRNTGVPDRFTGSGYGTDFTFTISTVQAEDLAVYFCQQDYSPPFTFGSGTKLEIK
modifications: HRP-labelled in the competitive ELISAs
  binding: binds

These are yes or no findings as the source states them, for the method shown. Binding calls can cover weak binding; strength is not graded here.
